In all, about 400,000 compounds went through this assay and about 5,500 (1.4%) were called active. Inconclusive means that the source gave no clear call. Such entries were picked first, then a sample of the others. Calls come from the whole dose curve; as a rule, active = well fitted cell-killing curve with a large enough effect; inconclusive = small, poorly fitted or top-dose-only effect, or effect the other way; inactive = flat fitted curve, though single readings scatter. Where the call is inconclusive, the potency comes from a doubtful curve fit.
Test: qHTS assay for MDR1-selective chemotherapeutics: Primary screen using the parental adenocarcinoma cell KB-3-1; note: nearly all actives have a fitted effect of over 60% in size
Conditions: KB-3-1 viability, CellTiter-Glo ATP luminescence, 72 h; activity change, negative = cytotoxic: at 46.1 µM (top of the series)
Method in brief: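 Cytotoxicity in the drug-sensitive parental line KB-3-1 was scored as loss of CellTiter-Glo luminescence following 72 h incubation with compound. Values come from curve fitting of normalized concentration-response data.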
% is set by controls: 0 for no effect and ±100 for the full control effect; potency is the fitted concentration of half-maximal effect.

**Q.** For COc1cc(Nc2c3c(nc4ccccc24)CCCC3)cc(OC)c1OC, which Potency is on record?
**A.** inconclusive: 29.1 µM [cytotoxic, single point]

**Q.** For Cc1ccc2c(c1)Oc1ccc(NC(=O)CCl)cc1C(=O)N2, which Potency is on record?
**A.** active: 5.8 µM

**Q.** Which Potency does the source give for O=C(N/N=C\c1ccc(Cl)s1)c1ccc(Cn2cccn2)o1 here?
**A.** inconclusive: 18.4 µM [rising, single point]

**Q.** With Cc1ccc2c(c1)c(=O)c(Br)c(C)n2Cc1ccccc1 as the molecule, how does the Potency read?
**A.** inconclusive: 8.2 µM [cytotoxic, partial curve, poor fit]

**Q.** With O=C(NCCc1ccc(Cl)cc1)C1CCN(C(=O)c2sccc2-n2cccc2)CC1 as the molecule, how does the Potency read?
**A.** inconclusive: 29.1 µM [cytotoxic, single point]

**Q.** For CCN(CC(=O)Nc1cc(Cl)ccc1C)C(=O)CC1CCCC1, which “activity change, negative = cytotoxic” value is on record?
**A.** inactive: -5.08%

**Q.** With COc1ccc(NC(=S)N(CCc2c(C)[nH]c3ccc(C)cc23)Cc2cccs2)cc1 as the molecule, how does the Potency read?
**A.** inconclusive: 20.6 µM [cytotoxic, single point]

**Q.** For CCOc1cccc2sc(NC(=O)CS(=O)(=O)c3ccc(C)cc3)nc12, which “activity change, negative = cytotoxic” value is on record?
**A.** inactive: 16.8%

**Q.** With CC(=O)Nc1ccc(S(=O)(=O)N(C)S(=O)(=O)c2ccc(F)cc2)cc1 as the molecule, how does the “activity change, negative = cytotoxic” value read?
**A.** inactive: -21.5%

**Q.** For N=c1ccn(Cc2ccc(Cl)cc2)cc1, which Potency is on record?
**A.** active: 4.61 µM

**Q.** With Clc1ccc(-c2nc3cnccn3c2NC2CCCC2)cc1 as the molecule, how does the Potency read?
**A.** inconclusive: 16.4 µM [cytotoxic, single point]

**Q.** With CCNc1nc(NC(C)(C)C)nc(SC(C(C)=O)C(C)=O)n1 as the molecule, how does the Potency read?
**A.** inconclusive: 29.1 µM [cytotoxic, single point]

**Q.** Which Potency does the source give for CC(C)[C@H](CO)Nc1nc(NCc2ccc(S(N)(=O)=O)cc2)c2ncn(C(C)C)c2n1 here?
**A.** inconclusive: 7.31 µM [cytotoxic, partial curve, poor fit]

**Q.** For O=C(CN1CCN(Cc2ccccc2)CC1)c1c[nH]c2ccccc12, which Potency is on record?
**A.** inconclusive: 13 µM [cytotoxic, partial curve, poor fit]

**Q.** For S=C(NCCC1=CCCCC1)Nc1ccccc1, which Potency is on record?
**A.** inconclusive: 20.6 µM [cytotoxic, single point]

**Q.** Which Potency does the source give for COc1ccccc1C(=O)NC(=O)COC(=O)C1CC1 here?
**A.** inconclusive: 29.1 µM [rising, single point]

**Q.** With COc1cc(/C=C2/C(=N)N3N=C(CC(=O)N4CCOCC4)SC3=NC2=O)ccc1OCc1ccc(F)cc1 as the molecule, how does the Potency read?
**A.** inconclusive: 29.1 µM [rising, single point]

**Q.** Which Potency does the source give for COc1ccc(C2=NOC(COc3ccc4c(C)cc(=O)oc4c3)C2)c(OC)c1 (configuration not stated) here?
**A.** active: 5.8 µM

**Q.** For Clc1nc(CN2CCCCC2)nc2sc3c(c12)CCC3, which Potency is on record?
**A.** inconclusive: 29.1 µM [cytotoxic, single point]

**Q.** Which Potency does the source give for COc1ccccc1-c1cc(NC=O)c2ncc(-c3cccc(C(C)=O)c3)n2c1 here?
**A.** inconclusive: 25.9 µM [cytotoxic, single point]

**Q.** For CCCCOc1ccc(NC(=O)c2cnc(C)cn2)cc1, which Potency is on record?
**A.** inconclusive: 29.1 µM [cytotoxic, single point]

**Q.** With Cc1nn(-c2ccc(F)cc2)c(C)c1NS(=O)(=O)c1ccc2ccccc2c1 as the molecule, how does the “activity change, negative = cytotoxic” value read?
**A.** inactive: 9.32%

**Q.** With CCCCNS(=O)(=O)c1ccc2nc(SCC(=O)Nc3ccccc3Cl)[nH]c2c1 as the molecule, how does the “activity change, negative = cytotoxic” value read?
**A.** inactive: 0%

**Q.** Which Potency does the source give for CCc1ccc(NC(=O)C(CC)Sc2nc3cc4c(cc3c(=O)n2Cc2ccco2)OCO4)cc1 (configuration not stated) here?
**A.** inconclusive: 16.4 µM [cytotoxic, partial curve]

**Q.** Which Potency does the source give for COc1ccc(/C=C2/CSC/C(=C/c3ccc(OC)c(OC)c3)C2=O)cc1OC here?
**A.** active: 4.61 µM

**Q.** With CCOC(=O)c1sc2c(c1C)C(c1cccs1)C1=C(CCCC1=O)N2 (configuration not stated) as the molecule, how does the Potency read?
**A.** inconclusive: 29.1 µM [cytotoxic, single point]

**Q.** For CC(C)(C)[C@H]1CCC(=O)N([C@H](CN=[N+]=[N-])Cc2ccccc2)CC1, which Potency is on record?
**A.** inconclusive: 29.1 µM [cytotoxic, single point]

**Q.** For COC(=O)CC1C(=O)NCCN1C(=O)c1oc2c(C)c(C)ccc2c1C (configuration not stated), which Potency is on record?
**A.** inconclusive: 29.1 µM [rising, single point]

**Q.** With CCN(Cc1ccccc1)C(c1cc2ccc(C)cc2[nH]c1=O)c1nnnn1CCOC (configuration not stated) as the molecule, how does the “activity change, negative = cytotoxic” value read?
**A.** inactive: 2.28%

**Q.** Which Potency does the source give for Cc1ccc(NC(=O)CNc2cccc(S(=O)(=O)N3CCCCC3)c2)cc1F here?
**A.** inconclusive: 13 µM [cytotoxic, partial curve, poor fit]

**Q.** Which Potency does the source give for CCCOc1ccc(C(=O)CCC(=O)NNC(=O)c2ccncc2)cc1 here?
**A.** inconclusive: 23.1 µM [cytotoxic, single point]

**Q.** Which Potency does the source give for COc1ccc(NC(=O)Cn2c(-c3ccccc3)cn(-c3ccc(C)cc3)c2=O)cc1 here?
**A.** inconclusive: 9.2 µM [rising, partial curve]

**Q.** With Cc1[nH]n(-c2ccccc2)c(=O)c1/C=N/Nc1nncc(-c2ccccc2)n1 as the molecule, how does the Potency read?
**A.** active: 7.31 µM

**Q.** With Cc1cccc(NC(=O)C2=C(O)c3ccccc3N(C)S2(=O)=O)c1 as the molecule, how does the Potency read?
**A.** inconclusive: 18.4 µM [cytotoxic, single point]

**Q.** Which “activity change, negative = cytotoxic” value does the source give for Cc1c(-c2nnc(SCC(=O)Nc3ccc(Cl)cc3)o2)nnn1-c1ccc(F)cc1 here?
**A.** inactive: 8.89%

**Q.** For CCC(C)(C)NC(=O)C(c1ccccn1)N(C(=O)c1csnn1)C1CCCCC1 (configuration not stated), which “activity change, negative = cytotoxic” value is on record?
**A.** inactive: -4.67%

**Q.** With CCC(=O)Nc1nnc2n1CCS2 as the molecule, how does the “activity change, negative = cytotoxic” value read?
**A.** inactive: 0.482%

**Q.** With CN1CCC(=NNc2ncnc3sc4c(c23)CCCC4)CC1 as the molecule, how does the Potency read?
**A.** inconclusive: 20.6 µM [cytotoxic, single point]

**Q.** Which activity change, negative = cytotoxic does the source give for COCCCN1C(=O)C(O)=C(C(=O)c2ccco2)C1c1ccccc1 (configuration not stated) here?
**A.** inconclusive: 17.2%

**Q.** With CCN1CCSc2ccc(C(=O)NCc3ccccc3Br)cc21 as the molecule, how does the Potency read?
**A.** inconclusive: 13 µM [cytotoxic, partial curve, poor fit]

**Q.** With O=C1OCCN1CCNCc1cn(-c2ccc(F)cc2)nc1-c1ccccc1Cl as the molecule, how does the “activity change, negative = cytotoxic” value read?
**A.** inactive: -8.23%

**Q.** With CC(C)CC(COCc1ccc([N+](=O)[O-])cc1)N1CCN(C(=O)c2ccc(C(F)(F)F)cc2)CCC1=O (configuration not stated) as the molecule, how does the Potency read?
**A.** inconclusive: 25.9 µM [cytotoxic, partial curve, poor fit]

**Q.** With O=C(c1ccc2c(c1)OCO2)N(Cc1cccs1)C1(C(=O)NC2CCCCC2)CCCCC1 as the molecule, how does the Potency read?
**A.** inconclusive: 29.1 µM [cytotoxic, single point]

**Q.** Which Potency does the source give for COc1ccccc1N1CCN(C(=O)c2cnc(N3CCOCC3)c3ccccc23)CC1 here?
**A.** inconclusive: 29.1 µM [cytotoxic, single point]

**Q.** Which Potency does the source give for CC(C)c1ccc(-n2cccc2/C=C2/C(=N)N3C=CSC3=NC2=O)cc1 here?
**A.** inconclusive: 29.1 µM [cytotoxic, single point]

**Q.** With Clc1cccc(CNc2ccn3nc(-c4cccc(OCc5ccccc5)c4)cc3n2)c1 as the molecule, how does the Potency read?
**A.** inconclusive: 29.1 µM [cytotoxic, single point]

**Q.** With Cc1cc2oc(=O)cc(CN3CCc4ccccc43)c2cc1Cl as the molecule, how does the Potency read?
**A.** inconclusive: 0.0708 µM [cytotoxic, full curve]

**Q.** Which Potency does the source give for CCc1ccc2c(c1)CCCN2C(=O)c1ccccc1C(=O)O here?
**A.** inconclusive: 23.1 µM [cytotoxic, single point]

**Q.** Which Potency does the source give for C=CCn1c(C)cc(C(=O)CSc2nnc(NC(C)C)s2)c1C here?
**A.** inconclusive: 25.9 µM [cytotoxic, single point]

**Q.** For CC(C)(C)OC(=O)NCc1ccc(CNC(=O)c2[nH]cnc2C(=O)NC2CCN(C(=O)OC(C)(C)C)CC2)cc1, which Potency is on record?
**A.** inconclusive: 29.1 µM [cytotoxic, single point]

**Q.** Which Potency does the source give for CC(C)C(NC(=O)c1ccc(F)cc1)C(=O)N1CCN(c2ccccn2)CC1 (configuration not stated) here?
**A.** inconclusive: 29.1 µM [cytotoxic, partial curve, poor fit]

**Q.** With CCN1CCN(C(=O)CCc2nnc(CCc3ccccc3OC)o2)[C@@H](C)C1=O as the molecule, how does the “activity change, negative = cytotoxic” value read?
**A.** inactive: -5.21%

**Q.** Which Potency does the source give for CC(C)(C)c1cc(C(=O)N/N=C/c2ccc(O)cc2)n(-c2ccccc2)n1 here?
**A.** inconclusive: 29.1 µM [cytotoxic, single point]

**Q.** For O=C1C(C2=NC(c3ccccn3)C3C(=O)N(c4ccc(Cl)cc4Cl)C(=O)C23)=C(O)c2ccccc21 (configuration not stated), which Potency is on record?
**A.** inconclusive: 25.9 µM [cytotoxic, single point]

**Q.** Which Potency does the source give for CC(=O)Nc1ccc(S(=O)(=O)NCCC(=O)OC(C)C(=O)NC2(C#N)CCCCC2)cc1 (configuration not stated) here?
**A.** inconclusive: 0.461 µM [rising, full curve]

**Q.** With CCCNC(=O)C1(C)CCCN(Cc2cc3ccccc3o2)C1 (configuration not stated) as the molecule, how does the “activity change, negative = cytotoxic” value read?
**A.** inactive: -0.549%

**Q.** Which Potency does the source give for CC(=O)Nc1ccc(-c2ccnc3c2CC(C)(C(=O)Nc2ccc4c(c2)OCO4)O3)cc1 (configuration not stated) here?
**A.** active: 18.4 µM

**Q.** For CCSc1nnc(Cc2cc(=O)[nH]c(=O)[nH]2)n1-c1ccc(F)cc1, which Potency is on record?
**A.** inconclusive: 18.4 µM [rising, partial curve]

**Q.** Which Potency does the source give for Cc1ccc(NC(=S)/N=C(\N)Nc2nc(C)c3ccccc3n2)cc1C here?
**A.** inconclusive: 18.4 µM [cytotoxic, single point]

**Q.** Which Potency does the source give for COc1ccc(NC(=O)C2Cc3c(-c4ccccc4Oc4ccccc4)ccnc3O2)cn1 (configuration not stated) here?
**A.** inconclusive: 29.1 µM [cytotoxic, single point]

**Q.** With COc1ccccc1Cn1cc(C(=O)c2ccc(F)cc2)c(=O)c2cc3c(cc21)OCO3 as the molecule, how does the “activity change, negative = cytotoxic” value read?
**A.** inactive: -1.58%

**Q.** With COc1ccc(C2CC(c3ccc(C(F)(F)F)cc3)=NN2c2ccc(S(N)(=O)=O)cc2)cc1 (configuration not stated) as the molecule, how does the Potency read?
**A.** inconclusive: 20.6 µM [cytotoxic, single point]

**Q.** With Cn1nc2c(c1C(=O)N1CCCC(C(=O)c3cc(F)ccc3F)C1)CCCC2 (configuration not stated) as the molecule, how does the “activity change, negative = cytotoxic” value read?
**A.** inactive: 0%

**Q.** For COC(=O)c1c(-c2ccncc2)csc1NC(=O)c1ccoc1C, which Potency is on record?
**A.** inconclusive: 18.4 µM [cytotoxic, single point]

**Q.** With COc1cc(C(=O)Nc2nnc(-c3sccc3C)s2)cc(OC)c1OC as the molecule, how does the Potency read?
**A.** inconclusive: 29.1 µM [cytotoxic, single point]

**Q.** With Cc1ccc(C)c(N2CCN(C(=O)c3cc(S(=O)(=O)N4CCC(C)CC4)cn3C)CC2)c1 as the molecule, how does the Potency read?
**A.** inconclusive: 20.6 µM [cytotoxic, single point]

**Q.** For Cc1cc(OCC(=O)N(Cc2ccc(N(C)C)cc2)C2CCS(=O)(=O)C2)cc(C)c1Cl (configuration not stated), which Potency is on record?
**A.** inconclusive: 23.1 µM [cytotoxic, single point]

— PubChem BioAssay AID1347075 (National Center for Advancing Translational Sciences (NCATS), 2019)
